The list shows a part of the results. Most values lie at the level of the controls, where differences are scatter.
compound: CN[C@@H]1C[C@H]2O[C@@](C)([C@@H]1OC)n1c3ccccc3c3c4c(c5c6ccccc6n2c5c31)C(=O)NC4 [staurosporine]; assay: log2 fold change of tryptic peptide abundance, ligand vs vehicle (limited proteolysis) (log2 ratio); higher = more trypsin-susceptible (destabilized); settings: ligand concentration: 20 uM; sample: mouse liver crude lysate; replicate design: treated separately

Sequences of proteins named here, by UniProt entry; tags and fusion partners are left off. A change or cut given only in a name is not applied to a line headed by its entry.
UniProt Q3U0S6: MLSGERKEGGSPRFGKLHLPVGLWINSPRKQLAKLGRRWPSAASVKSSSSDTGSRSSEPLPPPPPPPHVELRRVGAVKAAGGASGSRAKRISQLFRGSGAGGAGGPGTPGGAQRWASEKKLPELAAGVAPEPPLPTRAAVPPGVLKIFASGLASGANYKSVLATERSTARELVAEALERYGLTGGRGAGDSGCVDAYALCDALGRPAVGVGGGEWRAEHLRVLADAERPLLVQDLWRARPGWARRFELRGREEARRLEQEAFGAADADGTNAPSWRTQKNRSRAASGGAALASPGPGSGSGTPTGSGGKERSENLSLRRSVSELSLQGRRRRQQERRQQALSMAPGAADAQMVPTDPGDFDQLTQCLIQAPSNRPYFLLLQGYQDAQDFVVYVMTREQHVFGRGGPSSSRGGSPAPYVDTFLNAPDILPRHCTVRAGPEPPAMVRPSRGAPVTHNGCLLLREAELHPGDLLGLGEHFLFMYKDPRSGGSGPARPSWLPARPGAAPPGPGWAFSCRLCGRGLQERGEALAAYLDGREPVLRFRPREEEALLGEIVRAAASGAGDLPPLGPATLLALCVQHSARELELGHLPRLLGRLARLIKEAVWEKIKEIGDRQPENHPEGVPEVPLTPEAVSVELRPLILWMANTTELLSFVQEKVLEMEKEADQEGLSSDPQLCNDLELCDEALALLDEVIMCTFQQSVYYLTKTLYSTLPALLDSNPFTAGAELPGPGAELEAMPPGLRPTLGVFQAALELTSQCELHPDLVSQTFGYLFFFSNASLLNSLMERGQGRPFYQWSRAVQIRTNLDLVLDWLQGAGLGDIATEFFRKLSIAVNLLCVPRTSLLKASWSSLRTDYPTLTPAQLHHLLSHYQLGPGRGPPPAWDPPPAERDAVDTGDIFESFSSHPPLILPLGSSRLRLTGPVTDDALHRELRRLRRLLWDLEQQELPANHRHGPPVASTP
UniProt Q3TYQ9: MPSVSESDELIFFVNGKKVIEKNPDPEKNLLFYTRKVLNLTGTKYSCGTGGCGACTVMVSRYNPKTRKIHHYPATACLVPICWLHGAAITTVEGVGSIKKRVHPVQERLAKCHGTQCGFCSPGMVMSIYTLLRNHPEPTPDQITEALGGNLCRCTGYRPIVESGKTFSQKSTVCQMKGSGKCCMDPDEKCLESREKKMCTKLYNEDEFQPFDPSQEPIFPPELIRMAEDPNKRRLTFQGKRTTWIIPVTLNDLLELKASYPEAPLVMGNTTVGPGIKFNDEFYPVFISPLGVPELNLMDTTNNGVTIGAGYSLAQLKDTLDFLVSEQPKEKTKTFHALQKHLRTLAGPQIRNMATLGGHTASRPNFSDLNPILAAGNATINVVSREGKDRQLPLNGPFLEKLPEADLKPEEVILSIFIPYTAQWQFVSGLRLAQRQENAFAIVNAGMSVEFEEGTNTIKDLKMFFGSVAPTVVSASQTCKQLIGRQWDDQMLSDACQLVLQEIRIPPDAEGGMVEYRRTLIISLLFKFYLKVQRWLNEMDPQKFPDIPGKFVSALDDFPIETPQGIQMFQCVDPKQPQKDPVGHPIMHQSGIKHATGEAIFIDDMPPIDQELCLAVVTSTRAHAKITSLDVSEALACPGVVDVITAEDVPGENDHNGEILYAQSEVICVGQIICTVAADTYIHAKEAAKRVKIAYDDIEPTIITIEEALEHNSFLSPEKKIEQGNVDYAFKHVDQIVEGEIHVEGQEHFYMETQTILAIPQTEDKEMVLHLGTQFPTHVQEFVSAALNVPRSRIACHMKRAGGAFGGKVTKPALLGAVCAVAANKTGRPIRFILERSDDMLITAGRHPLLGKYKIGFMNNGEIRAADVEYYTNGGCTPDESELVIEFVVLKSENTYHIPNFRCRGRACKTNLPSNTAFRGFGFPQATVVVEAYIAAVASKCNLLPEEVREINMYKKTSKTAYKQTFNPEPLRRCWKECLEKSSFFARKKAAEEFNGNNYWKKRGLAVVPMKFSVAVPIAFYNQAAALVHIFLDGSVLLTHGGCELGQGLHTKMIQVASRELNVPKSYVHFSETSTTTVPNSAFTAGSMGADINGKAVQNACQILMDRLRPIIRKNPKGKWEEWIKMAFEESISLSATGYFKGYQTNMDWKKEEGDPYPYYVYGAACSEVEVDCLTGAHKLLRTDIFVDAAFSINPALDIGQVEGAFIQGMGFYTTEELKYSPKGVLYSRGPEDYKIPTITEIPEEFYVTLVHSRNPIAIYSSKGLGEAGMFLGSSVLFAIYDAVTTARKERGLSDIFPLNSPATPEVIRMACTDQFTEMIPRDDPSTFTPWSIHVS
UniProt Q3TIU4: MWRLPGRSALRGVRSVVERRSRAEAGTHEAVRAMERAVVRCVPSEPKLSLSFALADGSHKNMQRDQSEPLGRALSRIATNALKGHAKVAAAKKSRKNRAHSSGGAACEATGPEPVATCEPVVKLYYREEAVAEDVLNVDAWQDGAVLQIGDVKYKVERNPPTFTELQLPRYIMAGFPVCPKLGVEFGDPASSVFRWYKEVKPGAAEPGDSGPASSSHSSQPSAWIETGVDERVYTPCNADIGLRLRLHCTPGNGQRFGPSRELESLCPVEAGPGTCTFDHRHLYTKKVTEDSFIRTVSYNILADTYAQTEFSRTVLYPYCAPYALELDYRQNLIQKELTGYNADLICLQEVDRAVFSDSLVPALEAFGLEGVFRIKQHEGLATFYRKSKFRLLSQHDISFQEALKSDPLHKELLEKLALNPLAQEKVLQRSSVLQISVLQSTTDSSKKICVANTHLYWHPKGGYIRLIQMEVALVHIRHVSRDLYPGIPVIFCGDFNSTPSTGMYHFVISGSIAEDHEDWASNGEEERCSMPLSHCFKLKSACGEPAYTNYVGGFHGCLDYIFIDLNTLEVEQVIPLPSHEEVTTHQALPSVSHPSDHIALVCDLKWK
UniProt Q3SXB8: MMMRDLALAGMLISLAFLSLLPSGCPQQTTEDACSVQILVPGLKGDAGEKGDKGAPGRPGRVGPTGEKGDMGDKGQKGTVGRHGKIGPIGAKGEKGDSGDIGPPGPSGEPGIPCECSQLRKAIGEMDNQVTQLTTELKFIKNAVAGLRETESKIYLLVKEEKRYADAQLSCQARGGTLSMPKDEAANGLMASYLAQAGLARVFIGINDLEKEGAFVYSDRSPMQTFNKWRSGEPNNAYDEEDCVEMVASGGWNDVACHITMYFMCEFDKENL

Row | Target | log2 fold change
1 | UniProt Q3U0S6 (peptide sequence: VLADAERPLLVQDLWR, peptide start residue: 222) | -0.178
2 | UniProt Q3TYQ9 (peptide sequence: EINMYKK, peptide start residue: 950) | 0.284
3 | UniProt Q3TIU4 (peptide sequence: LALNPLAQEK, peptide start residue: 417) | 0.324
4 | UniProt Q3SXB8 (peptide sequence: VFIGINDLEK, peptide start residue: 202) | -0.23

— the supplement of paper PMC12819154, “High-throughput peptide-centric local stability assay extends protein–ligand identification to membrane proteins, tissues and bacteria” (Nature Structural & Molecular Biology, 2025)
